Experimental data taken from article PMC9795356.

B1: CHERP (protein, UniProt Q8IWX8 1-916)
chain: MEMPLPPDDQELRNVIDKLAQFVARNGPEFEKMTMEKQKDNPKFSFLFGGEFYSYYKCKLALEQQQLICKQQTPELEPAATMPPLPQPPLAPAAPIPPAQGAPSMDELIQQSQWNLQQQEQHLLALRQEQVTAAVAHAVEQQMQKLLEETQLDMNEFDNLLQPIIDTCTKDAISAGKNWMFSNAKSPPHCELMAGHLRNRITADGAHFELRLHLIYLINDVLHHCQRKQARELLAALQKVVVPIYCTSFLAVEEDKQQKIARLLQLWEKNGYFDDSIIQQLQSPALGLGQYQATLINEYSSVVQPVQLAFQQQIQTLKTQHEEFVTSLAQQQQQQQQQQQQLQMPQMEAEVKATPPPPAPPPAPAPAPAIPPTTQPDDSKPPIQMPGSSEYEAPGGVQDPAAAGPRGPGPHDQIPPNKPPWFDQPHPVAPWGQQQPPEQPPYPHHQGGPPHCPPWNNSHEGMWGEQRGDPGWNGQRDAPWNNQPDAAWNSQFEGPWNSQHEQPPWGGGQREPPFRMQRPPHFRGPFPPHQQHPQFNQPPHPHNFNRFPPRFMQDDFPPRHPFERPPYPHRFDYPQGDFPAEMGPPHHHPGHRMPHPGINEHPPWAGPQHPDFGPPPHGFNGQPPHMRRQGPPHINHDDPSLVPNVPYFDLPAGLMAPLVKLEDHEYKPLDPKDIRLPPPMPPSERLLAAVEAFYSPPSHDRPRNSEGWEQNGLYEFFRAKMRARRRKGQEKRNSGPSRSRSRSKSRGRSSSRSNSRSSKSSGSYSRSRSRSCSRSYSRSRSRSRSRSRSSRSRSRSQSRSRSKSYSPGRRRRSRSRSPTPPSSAGLGSNSAPPIPDSRLGEENKGHQMLVKMGWSGSGGLGAKEQGIQDPIKGGDVRDKWDQYKGVGVALDDPYENYRRNKSYSFIARMKARDECK
B2: MATR3 (protein, UniProt P43243 1-847)
chain: MSKSFQQSSLSRDSQGHGRDLSAAGIGLLAAATQSLSMPASLGRMNQGTARLASLMNLGMSSSLNQQGAHSALSSASTSSHNLQSIFNIGSRGPLPLSSQHRGDADQASNILASFGLSARDLDELSRYPEDKITPENLPQILLQLKRRRTEEGPTLSYGRDGRSATREPPYRVPRDDWEEKRHFRRDSFDDRGPSLNPVLDYDHGSRSQESGYYDRMDYEDDRLRDGERCRDDSFFGETSHNYHKFDSEYERMGRGPGPLQERSLFEKKRGAPPSSNIEDFHGLLPKGYPHLCSICDLPVHSNKEWSQHINGASHSRRCQLLLEIYPEWNPDNDTGHTMGDPFMLQQSTNPAPGILGPPPPSFHLGGPAVGPRGNLGAGNGNLQGPRHMQKGRVETSRVVHIMDFQRGKNLRYQLLQLVEPFGVISNHLILNKINEAFIEMATTEDAQAAVDYYTTTPALVFGKPVRVHLSQKYKRIKKPEGKPDQKFDQKQELGRVIHLSNLPHSGYSDSAVLKLAEPYGKIKNYILMRMKSQAFIEMETREDAMAMVDHCLKKALWFQGRCVKVDLSEKYKKLVLRIPNRGIDLLKKDKSRKRSYSPDGKESPSDKKSKTDGSQKTESSTEGKEQEEKSGEDGEKDTKDDQTEQEPNMLLESEDELLVDEEEAAALLESGSSVGDETDLANLGDVASDGKKEPSDKAVKKDGSASAAAKKKLKKVDKIEELDQENEAALENGIKNEENTEPGAESSENADDPNKDTSENADGQSDENKDDYTIPDEYRIGPYQPNVPVGIDYVIPKTGFYCKLCSLFYTNEEVAKNTHCSSLPHYQKLKKFLNKLAEERRQKKET

Assays:
[1] = molecular target: T1, FLAG-SCAF4 (human) (UniProt O95104); assay: affinity purification with mass spectrometry; SCAF4 or SCAF8 ELCAP-MS: double IP (FLAG IP, 3xFLAG peptide elution, then RNAPII 4H8 IP) from Benzonase-treated chromatin extract; label-free, two biological replicates, triplicate injection; control: parental HEK293 cells
T1 sequence: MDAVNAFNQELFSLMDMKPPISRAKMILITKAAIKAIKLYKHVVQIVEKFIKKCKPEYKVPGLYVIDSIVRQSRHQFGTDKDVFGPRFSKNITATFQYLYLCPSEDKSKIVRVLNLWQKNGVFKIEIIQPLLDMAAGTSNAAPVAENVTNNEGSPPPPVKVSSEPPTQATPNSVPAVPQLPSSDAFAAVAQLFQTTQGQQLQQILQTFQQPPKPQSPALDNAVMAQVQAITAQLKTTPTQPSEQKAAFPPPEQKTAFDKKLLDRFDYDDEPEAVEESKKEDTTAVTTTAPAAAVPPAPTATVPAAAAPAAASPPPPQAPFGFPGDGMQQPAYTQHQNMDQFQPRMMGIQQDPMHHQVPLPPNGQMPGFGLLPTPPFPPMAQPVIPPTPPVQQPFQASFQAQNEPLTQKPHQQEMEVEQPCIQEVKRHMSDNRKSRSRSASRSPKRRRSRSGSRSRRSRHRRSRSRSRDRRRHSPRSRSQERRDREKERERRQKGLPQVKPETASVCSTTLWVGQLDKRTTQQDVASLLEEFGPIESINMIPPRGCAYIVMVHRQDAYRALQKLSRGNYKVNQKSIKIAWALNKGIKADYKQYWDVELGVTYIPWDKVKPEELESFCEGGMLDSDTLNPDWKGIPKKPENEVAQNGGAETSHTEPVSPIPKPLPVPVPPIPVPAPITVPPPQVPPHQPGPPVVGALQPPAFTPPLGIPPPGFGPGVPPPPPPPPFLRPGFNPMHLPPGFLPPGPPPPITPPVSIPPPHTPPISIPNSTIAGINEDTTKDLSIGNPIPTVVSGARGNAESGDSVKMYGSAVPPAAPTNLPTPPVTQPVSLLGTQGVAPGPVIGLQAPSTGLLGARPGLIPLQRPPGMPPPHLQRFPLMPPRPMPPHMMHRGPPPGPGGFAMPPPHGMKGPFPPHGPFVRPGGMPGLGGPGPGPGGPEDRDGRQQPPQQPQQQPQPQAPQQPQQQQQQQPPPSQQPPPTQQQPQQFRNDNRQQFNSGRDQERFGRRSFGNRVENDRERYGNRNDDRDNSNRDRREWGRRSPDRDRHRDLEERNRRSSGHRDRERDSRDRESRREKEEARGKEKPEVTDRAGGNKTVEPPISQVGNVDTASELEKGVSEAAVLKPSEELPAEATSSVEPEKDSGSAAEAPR

[2] = molecular target: T2, FLAG-SCAF8 (human) (UniProt Q9UPN6); assay: as above
T2 sequence: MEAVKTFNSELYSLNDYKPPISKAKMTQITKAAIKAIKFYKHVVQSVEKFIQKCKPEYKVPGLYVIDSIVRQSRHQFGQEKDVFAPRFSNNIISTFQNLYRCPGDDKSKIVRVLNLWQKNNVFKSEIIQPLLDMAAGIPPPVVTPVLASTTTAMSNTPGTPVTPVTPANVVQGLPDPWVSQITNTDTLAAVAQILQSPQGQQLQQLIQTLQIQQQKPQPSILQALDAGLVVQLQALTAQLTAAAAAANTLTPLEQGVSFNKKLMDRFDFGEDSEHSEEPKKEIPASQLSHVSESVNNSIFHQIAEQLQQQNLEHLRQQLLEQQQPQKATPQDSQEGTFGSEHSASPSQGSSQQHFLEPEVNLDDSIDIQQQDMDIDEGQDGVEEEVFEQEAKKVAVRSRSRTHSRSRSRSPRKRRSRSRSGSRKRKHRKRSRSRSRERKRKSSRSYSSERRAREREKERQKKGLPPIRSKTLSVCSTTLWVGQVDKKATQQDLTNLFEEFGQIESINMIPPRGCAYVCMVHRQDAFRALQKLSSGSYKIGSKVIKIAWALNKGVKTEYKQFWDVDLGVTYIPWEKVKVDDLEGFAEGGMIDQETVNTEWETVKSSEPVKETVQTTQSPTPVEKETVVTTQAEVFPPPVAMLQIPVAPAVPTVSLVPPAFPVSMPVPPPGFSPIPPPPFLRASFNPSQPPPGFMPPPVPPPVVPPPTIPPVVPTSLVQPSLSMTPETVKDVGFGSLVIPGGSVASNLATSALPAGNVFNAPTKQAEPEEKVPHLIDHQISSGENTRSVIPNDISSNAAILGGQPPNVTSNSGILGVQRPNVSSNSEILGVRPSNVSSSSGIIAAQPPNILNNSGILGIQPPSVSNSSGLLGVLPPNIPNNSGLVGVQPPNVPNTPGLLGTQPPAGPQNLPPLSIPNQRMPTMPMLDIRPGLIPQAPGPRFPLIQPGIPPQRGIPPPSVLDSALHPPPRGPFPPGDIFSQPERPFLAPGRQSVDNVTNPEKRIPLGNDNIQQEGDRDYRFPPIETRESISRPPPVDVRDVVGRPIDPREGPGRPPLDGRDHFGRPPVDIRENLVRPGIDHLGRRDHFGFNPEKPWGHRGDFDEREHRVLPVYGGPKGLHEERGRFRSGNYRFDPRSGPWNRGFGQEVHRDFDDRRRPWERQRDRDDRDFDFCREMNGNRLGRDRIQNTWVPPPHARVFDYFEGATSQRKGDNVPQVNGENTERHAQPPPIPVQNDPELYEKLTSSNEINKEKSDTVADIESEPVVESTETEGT

| binding [1] | binding [2] | Binder |
| --- | --- | --- |
| no binding | no binding | B1 |
| no binding | no binding | B2 |

Results are given in words; binding and its absence hold for the method and conditions named. In cells and extracts the contact can be indirect. A yes stands for co-enrichment or nearness to the bait. Other partners may have been found. A no says only that the protein was not detected with the bait. Tags and fused reporters may be left off the sequences shown.
